Like-named read-outs stand apart in the source and are kept apart here. No constants are given. Whether binding was seen depends on the method and setting. Binding seen in cells or lysates may run through a third protein. Some binding calls cover weakened binding; strength is not graded here. For some of these results: Where a sequence is shown, tags or fusion partners need not be part of it. One block for each molecule: values may come before it.
Key:
Assay in all cases: co-IP
[1] = target: T1, endogenous PGC-1α of mouse muscle (mouse (endogenous in muscle)) (UniProt O70343)
T1 sequence: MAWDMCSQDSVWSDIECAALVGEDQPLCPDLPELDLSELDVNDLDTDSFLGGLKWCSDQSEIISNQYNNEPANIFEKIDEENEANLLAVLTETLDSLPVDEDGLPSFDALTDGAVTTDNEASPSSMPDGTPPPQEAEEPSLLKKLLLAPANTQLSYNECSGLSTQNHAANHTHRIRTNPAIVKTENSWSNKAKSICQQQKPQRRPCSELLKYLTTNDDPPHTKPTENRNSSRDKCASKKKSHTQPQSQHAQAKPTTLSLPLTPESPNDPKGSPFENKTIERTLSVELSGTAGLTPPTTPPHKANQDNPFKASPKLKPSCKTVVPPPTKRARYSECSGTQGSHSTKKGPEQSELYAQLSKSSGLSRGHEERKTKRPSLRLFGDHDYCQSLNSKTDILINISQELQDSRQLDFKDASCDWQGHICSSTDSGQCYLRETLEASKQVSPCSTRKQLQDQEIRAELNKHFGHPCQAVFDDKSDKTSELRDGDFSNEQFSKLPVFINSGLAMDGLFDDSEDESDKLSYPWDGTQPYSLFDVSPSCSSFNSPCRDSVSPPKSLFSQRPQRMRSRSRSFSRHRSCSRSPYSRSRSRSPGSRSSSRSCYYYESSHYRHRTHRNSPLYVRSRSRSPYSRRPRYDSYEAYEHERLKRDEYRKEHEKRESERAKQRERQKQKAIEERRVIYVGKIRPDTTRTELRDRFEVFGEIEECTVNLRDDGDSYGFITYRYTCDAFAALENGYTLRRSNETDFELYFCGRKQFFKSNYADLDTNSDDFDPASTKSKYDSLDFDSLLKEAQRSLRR

The chains behind the UniProt entries cited, without tags or fusion partners.
UniProt P37238: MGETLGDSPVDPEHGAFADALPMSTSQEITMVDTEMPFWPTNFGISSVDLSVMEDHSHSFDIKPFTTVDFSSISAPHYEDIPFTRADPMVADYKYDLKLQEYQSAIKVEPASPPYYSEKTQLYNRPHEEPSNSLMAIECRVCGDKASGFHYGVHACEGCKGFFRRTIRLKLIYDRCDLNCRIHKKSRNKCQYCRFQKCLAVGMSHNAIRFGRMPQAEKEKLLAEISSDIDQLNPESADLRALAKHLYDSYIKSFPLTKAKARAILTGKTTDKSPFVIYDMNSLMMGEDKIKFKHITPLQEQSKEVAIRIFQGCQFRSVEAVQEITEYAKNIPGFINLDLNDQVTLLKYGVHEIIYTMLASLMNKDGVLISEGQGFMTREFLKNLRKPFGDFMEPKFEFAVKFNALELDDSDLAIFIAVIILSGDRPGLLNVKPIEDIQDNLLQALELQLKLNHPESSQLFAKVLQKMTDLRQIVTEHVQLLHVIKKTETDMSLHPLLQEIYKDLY

[2] = target: T2, endogenous TUG of mouse hindlimb muscle (mouse (endogenous in hindlimb muscle)) (UniProt Q8VBT9)
T2 sequence: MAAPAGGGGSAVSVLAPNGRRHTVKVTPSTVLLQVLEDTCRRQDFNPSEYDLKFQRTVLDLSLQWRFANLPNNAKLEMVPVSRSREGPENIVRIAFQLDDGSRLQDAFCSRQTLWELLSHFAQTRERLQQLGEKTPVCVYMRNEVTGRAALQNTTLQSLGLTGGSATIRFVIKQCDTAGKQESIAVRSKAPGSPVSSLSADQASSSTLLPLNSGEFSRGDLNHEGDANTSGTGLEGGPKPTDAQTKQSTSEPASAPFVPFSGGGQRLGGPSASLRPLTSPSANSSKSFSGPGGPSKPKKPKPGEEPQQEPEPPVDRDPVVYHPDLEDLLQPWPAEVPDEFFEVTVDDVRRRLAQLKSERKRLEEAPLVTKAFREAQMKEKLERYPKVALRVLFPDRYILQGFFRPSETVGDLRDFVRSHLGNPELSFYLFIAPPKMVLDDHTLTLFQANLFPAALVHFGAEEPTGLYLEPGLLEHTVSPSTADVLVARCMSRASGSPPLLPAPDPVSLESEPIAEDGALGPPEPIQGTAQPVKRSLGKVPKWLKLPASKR

[3] = target: T3, flag-tagged PGC-1α (UniProt O70343)
T3 sequence: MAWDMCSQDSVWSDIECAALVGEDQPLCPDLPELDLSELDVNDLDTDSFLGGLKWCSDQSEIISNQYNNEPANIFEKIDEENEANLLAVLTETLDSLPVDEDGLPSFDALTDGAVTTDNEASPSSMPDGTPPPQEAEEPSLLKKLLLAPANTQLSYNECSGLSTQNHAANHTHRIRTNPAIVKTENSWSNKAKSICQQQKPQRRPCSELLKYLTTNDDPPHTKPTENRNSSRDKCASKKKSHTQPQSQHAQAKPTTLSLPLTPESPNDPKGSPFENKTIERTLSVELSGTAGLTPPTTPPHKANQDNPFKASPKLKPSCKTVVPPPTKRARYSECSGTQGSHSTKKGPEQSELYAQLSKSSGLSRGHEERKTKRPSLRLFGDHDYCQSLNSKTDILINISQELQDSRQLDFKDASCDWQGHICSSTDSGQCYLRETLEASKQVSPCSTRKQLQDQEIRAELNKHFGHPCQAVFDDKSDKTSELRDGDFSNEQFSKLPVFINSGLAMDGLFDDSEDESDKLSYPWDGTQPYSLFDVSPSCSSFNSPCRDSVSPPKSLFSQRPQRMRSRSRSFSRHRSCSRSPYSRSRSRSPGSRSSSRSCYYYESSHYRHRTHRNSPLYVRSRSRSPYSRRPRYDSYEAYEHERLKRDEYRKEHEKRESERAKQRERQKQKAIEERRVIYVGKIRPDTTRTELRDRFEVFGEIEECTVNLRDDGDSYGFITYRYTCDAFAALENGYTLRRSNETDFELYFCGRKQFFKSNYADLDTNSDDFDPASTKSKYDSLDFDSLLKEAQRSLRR

[4] = target: T2, endogenous TUG of mouse hindlimb muscle (mouse (endogenous in hindlimb muscle)); remark: listed apart in the source

binding [1]: binds
binding [2]: binds
Molecule: endogenous PPARγ of mouse muscle (from UniProt P37238 1-505)

binding [3]: binds
Molecule: flag-tagged PPARγ (from UniProt P37238 1-505)

binding [4]: binds
B1: endogenous PGC-1α of mouse muscle (protein, UniProt O70343 1-797)
chain: MAWDMCSQDSVWSDIECAALVGEDQPLCPDLPELDLSELDVNDLDTDSFLGGLKWCSDQSEIISNQYNNEPANIFEKIDEENEANLLAVLTETLDSLPVDEDGLPSFDALTDGAVTTDNEASPSSMPDGTPPPQEAEEPSLLKKLLLAPANTQLSYNECSGLSTQNHAANHTHRIRTNPAIVKTENSWSNKAKSICQQQKPQRRPCSELLKYLTTNDDPPHTKPTENRNSSRDKCASKKKSHTQPQSQHAQAKPTTLSLPLTPESPNDPKGSPFENKTIERTLSVELSGTAGLTPPTTPPHKANQDNPFKASPKLKPSCKTVVPPPTKRARYSECSGTQGSHSTKKGPEQSELYAQLSKSSGLSRGHEERKTKRPSLRLFGDHDYCQSLNSKTDILINISQELQDSRQLDFKDASCDWQGHICSSTDSGQCYLRETLEASKQVSPCSTRKQLQDQEIRAELNKHFGHPCQAVFDDKSDKTSELRDGDFSNEQFSKLPVFINSGLAMDGLFDDSEDESDKLSYPWDGTQPYSLFDVSPSCSSFNSPCRDSVSPPKSLFSQRPQRMRSRSRSFSRHRSCSRSPYSRSRSRSPGSRSSSRSCYYYESSHYRHRTHRNSPLYVRSRSRSPYSRRPRYDSYEAYEHERLKRDEYRKEHEKRESERAKQRERQKQKAIEERRVIYVGKIRPDTTRTELRDRFEVFGEIEECTVNLRDDGDSYGFITYRYTCDAFAALENGYTLRRSNETDFELYFCGRKQFFKSNYADLDTNSDDFDPASTKSKYDSLDFDSLLKEAQRSLRR
